Results published in the supplement of paper PMC10849652.
This is one part of the list.

Amino acid sequences for entries named in this document (tags omitted). A change or cut given only in a name is not applied to a line headed by its entry.
UniProt O14733: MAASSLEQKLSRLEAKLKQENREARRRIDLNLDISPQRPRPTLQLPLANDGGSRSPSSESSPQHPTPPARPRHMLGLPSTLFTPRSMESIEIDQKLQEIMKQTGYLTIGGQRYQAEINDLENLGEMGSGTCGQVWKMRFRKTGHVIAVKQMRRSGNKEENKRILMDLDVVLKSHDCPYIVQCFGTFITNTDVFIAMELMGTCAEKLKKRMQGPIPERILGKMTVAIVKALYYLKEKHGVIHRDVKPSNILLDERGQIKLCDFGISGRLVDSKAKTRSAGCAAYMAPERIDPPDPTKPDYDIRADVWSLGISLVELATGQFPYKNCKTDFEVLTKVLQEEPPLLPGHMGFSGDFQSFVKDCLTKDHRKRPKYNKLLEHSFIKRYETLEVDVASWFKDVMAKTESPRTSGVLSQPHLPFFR
UniProt Q16539, whole entry, looked up: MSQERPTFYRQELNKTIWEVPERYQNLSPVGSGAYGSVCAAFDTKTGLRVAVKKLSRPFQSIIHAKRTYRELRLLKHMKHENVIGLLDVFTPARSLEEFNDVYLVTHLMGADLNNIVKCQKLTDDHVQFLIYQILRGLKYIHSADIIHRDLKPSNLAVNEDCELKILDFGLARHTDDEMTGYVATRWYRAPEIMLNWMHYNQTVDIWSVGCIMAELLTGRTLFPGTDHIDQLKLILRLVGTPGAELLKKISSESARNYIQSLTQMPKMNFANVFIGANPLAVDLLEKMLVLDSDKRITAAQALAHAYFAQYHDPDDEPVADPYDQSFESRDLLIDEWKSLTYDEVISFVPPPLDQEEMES
UniProt Q16644, whole entry, looked up: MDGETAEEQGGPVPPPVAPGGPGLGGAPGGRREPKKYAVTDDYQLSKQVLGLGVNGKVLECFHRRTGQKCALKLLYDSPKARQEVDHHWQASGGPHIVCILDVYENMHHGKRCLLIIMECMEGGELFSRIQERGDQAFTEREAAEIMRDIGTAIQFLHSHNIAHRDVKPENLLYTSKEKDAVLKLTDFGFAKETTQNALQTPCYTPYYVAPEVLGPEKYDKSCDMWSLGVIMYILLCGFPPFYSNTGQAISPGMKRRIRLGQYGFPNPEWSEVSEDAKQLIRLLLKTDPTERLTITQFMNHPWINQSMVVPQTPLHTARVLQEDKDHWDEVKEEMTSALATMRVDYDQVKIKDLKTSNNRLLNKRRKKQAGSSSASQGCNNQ
UniProt Q8WWC4: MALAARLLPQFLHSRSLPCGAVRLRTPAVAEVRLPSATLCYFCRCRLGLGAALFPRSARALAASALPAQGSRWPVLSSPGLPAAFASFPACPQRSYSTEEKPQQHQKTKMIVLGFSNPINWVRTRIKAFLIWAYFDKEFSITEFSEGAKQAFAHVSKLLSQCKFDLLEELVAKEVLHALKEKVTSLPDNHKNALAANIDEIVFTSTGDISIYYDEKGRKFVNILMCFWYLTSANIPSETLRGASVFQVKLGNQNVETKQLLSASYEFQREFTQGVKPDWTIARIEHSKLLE
UniProt Q13257, whole entry, looked up: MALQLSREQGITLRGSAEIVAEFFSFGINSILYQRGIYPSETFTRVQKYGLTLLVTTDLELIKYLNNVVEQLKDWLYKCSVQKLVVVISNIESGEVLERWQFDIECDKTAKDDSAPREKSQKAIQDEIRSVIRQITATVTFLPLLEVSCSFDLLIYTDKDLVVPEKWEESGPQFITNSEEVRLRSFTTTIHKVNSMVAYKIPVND
UniProt P29966: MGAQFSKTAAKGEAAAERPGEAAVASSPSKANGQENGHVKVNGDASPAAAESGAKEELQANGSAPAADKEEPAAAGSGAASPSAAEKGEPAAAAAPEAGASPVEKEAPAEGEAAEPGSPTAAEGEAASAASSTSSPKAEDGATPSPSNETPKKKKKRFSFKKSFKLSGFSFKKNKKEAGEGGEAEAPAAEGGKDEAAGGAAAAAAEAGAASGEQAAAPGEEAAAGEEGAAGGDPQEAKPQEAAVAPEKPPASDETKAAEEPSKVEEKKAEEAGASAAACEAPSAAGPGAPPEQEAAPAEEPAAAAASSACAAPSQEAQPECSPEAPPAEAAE
UniProt Q15013: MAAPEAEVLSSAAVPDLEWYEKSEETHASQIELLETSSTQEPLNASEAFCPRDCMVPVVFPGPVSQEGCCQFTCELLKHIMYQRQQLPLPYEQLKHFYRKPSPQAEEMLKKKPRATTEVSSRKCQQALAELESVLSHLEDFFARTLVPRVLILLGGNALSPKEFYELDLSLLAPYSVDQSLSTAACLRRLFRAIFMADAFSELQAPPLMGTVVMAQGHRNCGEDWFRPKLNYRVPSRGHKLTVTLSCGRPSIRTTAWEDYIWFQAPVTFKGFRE

Tests used:
Assay in all cases: log2 fold change, soluble protein after heating vs DMSO (PISA); higher = thermal stabilisation; K562 cells, 10 uM, 30 min; active = over 0.2 and 3.5 SD of the protein, either way, in both replicates (recomputed)
[1] = compound: CC[C@@H]1C(=O)N(C)c2cnc(Nc3ccc(C(=O)NC4CCN(C)CC4)cc3OC)nc2N1C1CCCC1
How it was run: (§1)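 Soluble protein was quantified by TMTpro 16plex LC-MS/MS after channel sums were equalised. It was obtained as the supernatant after 21,000xg for 90 min from pooled aliquots of K562 cells (2×10^6 cells/mL, 10 μM compound, 30 min) heated for 3 min across 48°C-58°C and extracted in PBS with 0.5% NP-40 at 4°C. Thermal stability values are relative to control samples and come from duplicates. They are given as log2 fold changes.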

volasertib = compound: CC[C@@H]1C(=O)N(C)c2cnc(Nc3ccc(C(=O)N[C@H]4CC[C@H](N5CCN(CC6CC6)CC5)CC4)cc3OC)nc2N1C(C)C [volasertib]
How it was run: as §1

[2] = compound: CC[C@H](C)N1C=C(C2=C(C=C(C=C21)C3=CN=C(C=C3)N4CCNCC4)C(=O)NCC5=C(C=C(NC5=O)C)C)C
How it was run: as §1

epoxomicin = compound: CC[C@H](C)[C@@H](C(=O)N[C@@H]([C@@H](C)O)C(=O)N[C@@H](CC(C)C)C(=O)[C@]1(CO1)C)NC(=O)[C@H]([C@@H](C)CC)N(C)C(=O)C [epoxomicin]
How it was run: as §1

[3] = compound: CCn1cc(-c2ccnc3[nH]c(-c4cccc(CN(C)C)c4)cc23)c(-c2ccc(NC(=O)N(C)C)cc2)n1
How it was run: as §1

[4] = compound: CN(C)CC(=O)Nc1ccc2[nH]c(=O)c3ccccc3c2c1
How it was run: as §1

[5] = compound: CN1C2=C(C3=C1C(=O)N(N=C3)CC4=CC(=CC=C4)N)SC(=C2)S(=O)C
How it was run: as §1

[6] = compound: CN1CCC(CNc2ccc3ncc(-c4cccc(OC(F)(F)F)c4)n3n2)CC1
How it was run: as §1

saracatinib = compound: CN1CCN(CCOc2cc(OC3CCOCC3)c3c(Nc4c(Cl)ccc5c4OCO5)ncnc3c2)CC1 [saracatinib]
How it was run: as §1

sotrastaurin = compound: CN1CCN(c2nc(C3=C(c4c[nH]c5ccccc45)C(=O)NC3=O)c3ccccc3n2)CC1 [sotrastaurin]
How it was run: as §1

Tubastatin A = compound: CN1CCc2c(c3ccccc3n2Cc2ccc(C(=O)NO)cc2)C1 [Tubastatin A]
How it was run: as §1

[7] = compound: CNC(=O)C1=CC=CC=C1NC2=NC(=NC=C2Cl)NC3=C(C=C(C=C3)N4CCOCC4)OC
How it was run: as §1

defactinib = compound: CNC(=O)c1ccc(Nc2ncc(C(F)(F)F)c(NCc3nccnc3N(C)S(C)(=O)=O)n2)cc1 [defactinib]
How it was run: as §1

rucaparib = compound: CNCc1ccc(-c2[nH]c3cc(F)cc4c3c2CCNC4=O)cc1 [rucaparib]
How it was run: as §1

[8] = compound: CNc1nc(-c2ccc3c(N)n[nH]c3c2)cc(N2C[C@@H](C(=O)NC3CCCCC3)CC[C@H]2C)n1
How it was run: as §1

encorafenib = compound: COC(=O)N[C@@H](C)CNc1nccc(-c2cn(C(C)C)nc2-c2cc(Cl)cc(NS(C)(=O)=O)c2F)n1 [encorafenib]
How it was run: as §1

[9] = compound: COC(=O)[C@H](CCSC)NC(=O)C1=C(C=C(C=C1)NC[C@H](CS)N)C2=CC=CC=C2
How it was run: as §1

[10] = compound: CCn1c(C(=O)N(C2CC2)C2CC2)cc2c3c(ncn3C)c(Nc3cc(C)n(C)n3)nc21
How it was run: as §1

rosiglitazone = compound: CN(CCOC1=CC=C(C=C1)C[C@H]2C(=O)NC(=O)S2)C3=CC=CC=N3 (racemic) [rosiglitazone]
How it was run: as §1

alvocidib = compound: CN1CC[C@H](c2c(O)cc(O)c3c(=O)cc(-c4ccccc4Cl)oc23)[C@H](O)C1 [alvocidib]
How it was run: as §1

| Target | log2 fold change [1] | log2 fold change (volasertib) | log2 fold change [2] | log2 fold change (epoxomicin) | log2 fold change [3] | log2 fold change [4] | log2 fold change [5] | log2 fold change [6] | log2 fold change (saracatinib) | log2 fold change (sotrastaurin) | log2 fold change (Tubastatin A) | log2 fold change [7] | log2 fold change (defactinib) | log2 fold change (rucaparib) | log2 fold change [8] | log2 fold change (encorafenib) | log2 fold change [9] | log2 fold change [10] | log2 fold change (rosiglitazone) | log2 fold change (alvocidib) |
| --- | --- | --- | --- | --- | --- | --- | --- | --- | --- | --- | --- | --- | --- | --- | --- | --- | --- | --- | --- | --- |
| MAP3K20 (UniProt Q9NYL2) | inactive: 0.038 | inactive: -0.026 | inactive: 0.08 | inactive: 0.008 | inactive: -0.016 | inactive: -0.02 | inactive: 0.126 | inactive: -0.12 | inactive: -0.106 | inactive: 0.055 | inactive: 0.004 | inactive: 0.054 | inactive: -0.018 | inactive: 0.002 | inactive: 0.01 | inactive: 0.02 | inactive: -0.034 | – | – | – |
| LYZ (UniProt P61626) | inactive: -0.113 | inactive: -0.21 | inactive: 0.912 | inactive: 0.323 | – | inactive: 0.135 | inactive: 0.822 | – | inactive: -0.026 | inactive: 0.157 | inactive: -0.02 | inactive: 0.021 | inactive: 0.131 | inactive: 0.122 | inactive: 0.349 | inactive: -0.156 | inactive: 0.457 | inactive: 0.473 | inactive: 0.039 | inactive: -0.071 |
| MAP2K7 isoform 4 (UniProt O14733) | inactive: -0.026 | inactive: -0.005 | inactive: 0.022 | inactive: 0.07 | inactive: -0.086 | inactive: -0.017 | inactive: -0.065 | inactive: -0.15 | inactive: 0.063 | inactive: 0.026 | inactive: -0.002 | inactive: -0.04 | inactive: -0.012 | inactive: 0.036 | inactive: -0.001 | inactive: 0.013 | inactive: -0.01 | – | – | – |
| MAPK14 isoform 2 (UniProt Q16539) | inactive: -0.223 | inactive: -0.398 | inactive: -0.019 | inactive: 0.02 | inactive: 0.001 | inactive: 0.039 | inactive: -0.029 | inactive: 0.074 | inactive: 0.486 | inactive: -0.085 | inactive: 0.145 | inactive: 0.559 | inactive: -0.25 | inactive: 0.127 | inactive: -0.029 | active: 0.91 | inactive: -0.014 | – | – | – |
| MAPKAPK3 (UniProt Q16644) | inactive: -0.084 | inactive: 0.036 | inactive: 0.003 | inactive: 0.064 | inactive: 0.016 | inactive: -0.015 | inactive: -0.14 | inactive: -0.049 | inactive: 0.134 | inactive: -0.117 | inactive: -0.077 | inactive: 0.117 | inactive: -0.051 | inactive: -0.023 | inactive: 0.011 | inactive: 0.106 | inactive: -0.01 | – | – | – |
| MAIP1 (UniProt Q8WWC4) | inactive: -0.086 | inactive: -0.098 | inactive: -0.023 | inactive: -0.068 | inactive: -0.015 | inactive: 0.026 | inactive: -0.052 | active: -0.396 | inactive: 0.03 | inactive: 0.06 | inactive: 0.028 | inactive: 0.002 | inactive: -0.054 | inactive: -0.039 | inactive: -0.04 | inactive: 0.048 | inactive: 0.008 | – | – | – |
| MAD2L1 (UniProt Q13257) | inactive: -0.058 | active: -0.381 | inactive: 0.016 | inactive: -0.045 | inactive: -0.038 | inactive: 0.002 | inactive: -0.081 | inactive: -0.166 | inactive: 0.037 | inactive: -0.056 | inactive: 0.01 | inactive: 0.05 | inactive: -0.112 | inactive: -0.058 | inactive: -0.046 | inactive: -0.007 | inactive: -0.04 | – | – | – |
| MARCKS (UniProt P29966) | inactive: 0.035 | inactive: -0.027 | inactive: -0.091 | inactive: -0.044 | active: 0.268 | inactive: -0.043 | inactive: -0.014 | inactive: 0.089 | inactive: 0.019 | inactive: 0.077 | inactive: 0.039 | inactive: 0.005 | inactive: 0.009 | inactive: -0.02 | inactive: -0.02 | inactive: -0.014 | inactive: 0.002 | – | – | – |
| MAD2L1BP isoform 3 (UniProt Q15013) | inactive: -0.01 | inactive: -0.052 | inactive: 0.052 | inactive: 0.094 | – | inactive: -0.047 | inactive: -0.012 | – | inactive: -0.054 | inactive: 0.061 | inactive: 0.008 | inactive: -0.049 | inactive: -0.029 | inactive: -0.055 | inactive: -0.005 | inactive: -0.032 | inactive: 0.014 | inactive: -0.036 | inactive: 0.027 | inactive: -0.058 |
